Assay results: paper PMC5007297
Results are given in words; binding and its absence hold for the method and conditions named. For some assays here: Binding calls can cover weak binding; strength is not graded here. For some assays here: Binding seen in cells or lysates may run through a third protein.

Assays:
[1] = target: T1, Asl^F3 (aa 626–993) (Drosophila) (UniProt Q9VNE4); assay: two-hybrid; array-based mating screen (modified Matchmaker Gold; Y2HGold x Y187), every construct as bait and as prey; interactions reported at the highest stringency (QDOXA plates), 30 °C, scored 0-3
T1 sequence: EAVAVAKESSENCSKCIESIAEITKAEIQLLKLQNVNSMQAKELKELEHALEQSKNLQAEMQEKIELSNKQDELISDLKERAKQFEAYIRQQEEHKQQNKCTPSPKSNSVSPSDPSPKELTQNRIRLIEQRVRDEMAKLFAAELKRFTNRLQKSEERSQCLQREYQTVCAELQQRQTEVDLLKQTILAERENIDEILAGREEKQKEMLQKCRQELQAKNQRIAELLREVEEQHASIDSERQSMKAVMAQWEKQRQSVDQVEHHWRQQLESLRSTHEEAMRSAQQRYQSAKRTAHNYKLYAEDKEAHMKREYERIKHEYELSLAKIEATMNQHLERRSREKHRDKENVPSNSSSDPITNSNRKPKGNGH

[2] = target: T2, Asl (Drosophila) (UniProt Q9VNE4); assay: as above
T2 sequence: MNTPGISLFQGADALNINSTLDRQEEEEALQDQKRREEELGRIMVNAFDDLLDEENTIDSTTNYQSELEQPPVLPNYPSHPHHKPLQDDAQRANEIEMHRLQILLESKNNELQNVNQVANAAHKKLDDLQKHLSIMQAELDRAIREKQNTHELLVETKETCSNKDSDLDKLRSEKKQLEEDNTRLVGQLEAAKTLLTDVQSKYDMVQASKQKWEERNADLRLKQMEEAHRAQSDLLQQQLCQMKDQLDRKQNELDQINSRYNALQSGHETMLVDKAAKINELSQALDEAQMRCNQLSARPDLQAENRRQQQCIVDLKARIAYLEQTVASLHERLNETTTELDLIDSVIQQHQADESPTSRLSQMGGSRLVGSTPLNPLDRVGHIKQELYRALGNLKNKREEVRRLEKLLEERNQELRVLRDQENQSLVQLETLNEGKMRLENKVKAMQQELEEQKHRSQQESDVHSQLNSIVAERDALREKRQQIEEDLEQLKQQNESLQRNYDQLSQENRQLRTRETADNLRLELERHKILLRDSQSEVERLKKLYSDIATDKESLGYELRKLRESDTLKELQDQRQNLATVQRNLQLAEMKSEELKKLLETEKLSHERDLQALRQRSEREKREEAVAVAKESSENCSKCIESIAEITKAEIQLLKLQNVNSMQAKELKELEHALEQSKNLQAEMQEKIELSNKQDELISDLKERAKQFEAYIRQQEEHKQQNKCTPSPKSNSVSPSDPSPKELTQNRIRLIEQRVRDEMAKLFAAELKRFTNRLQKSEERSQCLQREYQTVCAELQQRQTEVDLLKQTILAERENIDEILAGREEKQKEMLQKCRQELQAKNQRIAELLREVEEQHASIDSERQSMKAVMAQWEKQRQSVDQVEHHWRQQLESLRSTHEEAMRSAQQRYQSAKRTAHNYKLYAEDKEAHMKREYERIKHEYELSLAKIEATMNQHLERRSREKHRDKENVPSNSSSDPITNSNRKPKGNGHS

[3] = target: T3, Plk4 (Drosophila) (UniProt O97143); assay: as above
T3 sequence: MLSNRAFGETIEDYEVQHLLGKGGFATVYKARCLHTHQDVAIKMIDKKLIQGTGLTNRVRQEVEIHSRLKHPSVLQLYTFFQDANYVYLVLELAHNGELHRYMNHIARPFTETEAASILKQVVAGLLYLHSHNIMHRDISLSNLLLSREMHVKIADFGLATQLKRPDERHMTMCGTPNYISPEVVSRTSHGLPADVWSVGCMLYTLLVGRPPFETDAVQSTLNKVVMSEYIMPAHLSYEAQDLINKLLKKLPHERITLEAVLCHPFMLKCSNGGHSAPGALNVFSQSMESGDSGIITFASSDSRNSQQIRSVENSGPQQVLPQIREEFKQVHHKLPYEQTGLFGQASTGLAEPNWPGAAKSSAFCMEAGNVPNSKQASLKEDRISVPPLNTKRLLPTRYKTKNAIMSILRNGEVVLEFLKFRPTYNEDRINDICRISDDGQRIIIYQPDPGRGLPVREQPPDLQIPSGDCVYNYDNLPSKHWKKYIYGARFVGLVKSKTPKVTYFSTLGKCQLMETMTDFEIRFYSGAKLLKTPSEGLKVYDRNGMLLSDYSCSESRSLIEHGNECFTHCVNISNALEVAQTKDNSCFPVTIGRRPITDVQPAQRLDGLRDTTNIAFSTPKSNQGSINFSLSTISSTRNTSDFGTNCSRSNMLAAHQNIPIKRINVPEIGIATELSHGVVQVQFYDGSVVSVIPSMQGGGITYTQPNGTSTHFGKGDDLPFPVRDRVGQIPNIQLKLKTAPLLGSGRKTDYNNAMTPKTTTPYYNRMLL

[4] = target: T4, Sas-6 (Drosophila) (UniProt Q9VAC8); assay: as above
T4 sequence: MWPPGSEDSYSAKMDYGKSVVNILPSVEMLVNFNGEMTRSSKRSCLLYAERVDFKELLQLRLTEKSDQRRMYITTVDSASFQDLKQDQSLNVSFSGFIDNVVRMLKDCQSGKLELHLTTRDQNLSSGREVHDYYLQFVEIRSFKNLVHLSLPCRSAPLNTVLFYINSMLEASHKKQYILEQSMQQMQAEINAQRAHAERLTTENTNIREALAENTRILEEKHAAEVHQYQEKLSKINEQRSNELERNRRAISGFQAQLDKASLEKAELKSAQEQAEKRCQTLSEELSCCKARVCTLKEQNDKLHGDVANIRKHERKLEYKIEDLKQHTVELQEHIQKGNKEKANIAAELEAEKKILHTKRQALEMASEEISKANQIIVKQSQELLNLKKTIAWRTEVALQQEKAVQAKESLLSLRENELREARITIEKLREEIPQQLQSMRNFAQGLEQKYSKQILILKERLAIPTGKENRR

[5] = target: T5, Plk4^F2 (aa 382–602) (S2 cell co-IP construct) (Drosophila) (UniProt O97143); assay: co-IP; S2 cells transfected with the tagged constructs; anti-GFP (ab290) on Protein A Dynabeads, RIPA or CLB lysis buffer, 30 min at 4 °C; blots with anti-GFP and anti-FLAG
T5 sequence: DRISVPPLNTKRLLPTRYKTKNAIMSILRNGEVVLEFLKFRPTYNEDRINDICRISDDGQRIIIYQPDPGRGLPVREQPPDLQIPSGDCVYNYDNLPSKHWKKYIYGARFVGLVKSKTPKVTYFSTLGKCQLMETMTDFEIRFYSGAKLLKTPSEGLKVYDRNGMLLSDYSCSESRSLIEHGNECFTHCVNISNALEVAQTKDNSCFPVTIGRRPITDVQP

Question: For Cep135^FL-9A (Drosophila), which binding [1] is on record?
Answer: no binding

Question: Which binding [2] does the source give for Cnn (Drosophila) here?
Answer: binds

Question: How did the binding [3] turn out when CP110 (Drosophila) was run?
Answer: binds

Question: How did the binding [4] turn out when Ana1 (Drosophila) was run?
Answer: binds

Question: And the binding [3]?
Answer: binds

Question: How did the binding [3] turn out when Cep135 (Drosophila) was run?
Answer: binds

Question: Cep135^FL-WT (Drosophila) was tested. Which binding [1] did it give?
Answer: no binding

Question: Which binding [5] does the source give for “Cep135 (S2 cell co-IP with Plk4) (Drosophila)” here?
Answer: binds
